The target of experiment [1] is VN-Dfd^HX (HX-mutated Deformed fused to the N-terminal fragment of Venus) (Drosophila) (UniProt P07548). The experiment is described as follows: split reporter.
Experiment [2] concerns the target GST-Ubx NES-mutated (Drosophila). Kind of experiment: pull-down.
For experiment [3], the target named is GST-Ubx wild type (Drosophila). The experiment is described as follows: pull-down.

Amino acid sequences for entries named in this document (tags omitted). A change or cut given only in a name is not applied to a line headed by its entry.
UniProt P07548: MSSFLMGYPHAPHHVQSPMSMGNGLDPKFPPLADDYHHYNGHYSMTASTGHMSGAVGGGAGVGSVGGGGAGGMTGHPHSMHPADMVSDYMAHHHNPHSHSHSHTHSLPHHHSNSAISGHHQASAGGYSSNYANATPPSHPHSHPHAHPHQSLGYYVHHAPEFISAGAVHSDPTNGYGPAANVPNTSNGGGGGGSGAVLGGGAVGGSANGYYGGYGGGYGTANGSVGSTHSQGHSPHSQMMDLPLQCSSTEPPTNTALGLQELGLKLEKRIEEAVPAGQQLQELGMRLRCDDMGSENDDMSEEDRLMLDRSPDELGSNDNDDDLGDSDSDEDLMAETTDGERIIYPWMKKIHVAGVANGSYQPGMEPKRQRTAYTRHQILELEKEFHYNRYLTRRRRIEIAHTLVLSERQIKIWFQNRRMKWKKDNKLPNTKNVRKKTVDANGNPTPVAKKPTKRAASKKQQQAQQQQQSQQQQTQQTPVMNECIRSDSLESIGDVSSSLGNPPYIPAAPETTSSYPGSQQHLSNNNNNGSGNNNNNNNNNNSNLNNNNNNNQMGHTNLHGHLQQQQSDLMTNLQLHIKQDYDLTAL
UniProt Q9TVM2: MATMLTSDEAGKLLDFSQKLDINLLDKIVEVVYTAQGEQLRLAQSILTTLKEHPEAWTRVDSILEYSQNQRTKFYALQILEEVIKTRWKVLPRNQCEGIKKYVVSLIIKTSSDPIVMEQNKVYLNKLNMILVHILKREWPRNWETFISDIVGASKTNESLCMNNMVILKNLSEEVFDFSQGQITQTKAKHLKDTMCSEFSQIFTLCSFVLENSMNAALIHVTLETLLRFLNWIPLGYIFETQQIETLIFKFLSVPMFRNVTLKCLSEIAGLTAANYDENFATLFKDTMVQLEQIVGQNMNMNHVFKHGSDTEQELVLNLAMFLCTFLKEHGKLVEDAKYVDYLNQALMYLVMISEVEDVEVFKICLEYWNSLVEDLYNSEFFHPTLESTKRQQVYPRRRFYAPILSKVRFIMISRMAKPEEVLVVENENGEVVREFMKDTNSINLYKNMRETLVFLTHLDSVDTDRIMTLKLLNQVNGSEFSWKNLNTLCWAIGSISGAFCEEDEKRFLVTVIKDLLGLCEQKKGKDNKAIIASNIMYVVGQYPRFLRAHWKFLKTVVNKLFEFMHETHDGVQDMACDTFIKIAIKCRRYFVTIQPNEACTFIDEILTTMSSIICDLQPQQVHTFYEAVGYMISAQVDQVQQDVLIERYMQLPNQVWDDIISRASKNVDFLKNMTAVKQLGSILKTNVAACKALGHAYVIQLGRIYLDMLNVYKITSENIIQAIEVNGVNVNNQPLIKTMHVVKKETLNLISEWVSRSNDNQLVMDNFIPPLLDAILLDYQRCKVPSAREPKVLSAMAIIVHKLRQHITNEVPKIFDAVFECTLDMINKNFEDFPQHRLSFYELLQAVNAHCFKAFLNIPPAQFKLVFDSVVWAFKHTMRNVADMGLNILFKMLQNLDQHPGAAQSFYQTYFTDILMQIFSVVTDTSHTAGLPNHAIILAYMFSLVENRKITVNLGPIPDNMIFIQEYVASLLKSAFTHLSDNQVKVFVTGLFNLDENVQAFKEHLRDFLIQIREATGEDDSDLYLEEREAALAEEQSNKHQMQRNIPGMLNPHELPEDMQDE

These are yes or no findings as the source states them, for the method shown. In cells and extracts the contact can be indirect. A result given as binding can be weak or reduced; the word gives no strength. For part of these data: Tags and fused reporters may be left off the sequences shown.

Data on two molecules can be found in article doi:10.1101/843383.

For the molecule “VC-Emb (Embargoed fused to the C-terminal fragment of Venus), in embryos (from UniProt Q9TVM2 1-1063)”, in experiment [1], the binding entry is “binds”.

B1: Flag-Exd (protein, UniProt P40427 1-376)
chain: MEDPNRMLAHTGGMMAPQGYGLSGQDDGQNAGSENEVRKQKDIGEILQQIMSISEQSLDEAQARKHTLNCHRMKPALFSVLCEIKEKTVLSIRNTQEEEPPDPQLMRLDNMLIAEGVAGPEKGGGGAAAASAAAASQGGSLSIDGADNAIEHSDYRAKLAQIRQIYHQELEKYEQACNEFTTHVMNLLREQSRTRPITPKEIERMVQIIHKKFSSIQMQLKQSTCEAVMILRSRFLDARRKRRNFSKQASEILNEYFYSHLSNPYPSEEAKEELARKCGITVSQVSNWFGNKRIRYKKNIGKAQEEANLYAAKKAAGASPYSMAGPPSGTTTPMMSPAPPQDSMGYPMGSGGYDQQQPYDNSMGGYDPNLHQDLSP
Take B1: the binding entry in experiment [2] and in experiment [3] was “binds” each time.
